Measured values taken from PMC9918491.
Results are given in words; binding and its absence hold for the method and conditions named. In cells and extracts the contact can be indirect. Some binding calls cover weakened binding; strength is not graded here.

Protein sequences, listed by entry. Tags and fused reporters are not part of them.
UniProt P45983: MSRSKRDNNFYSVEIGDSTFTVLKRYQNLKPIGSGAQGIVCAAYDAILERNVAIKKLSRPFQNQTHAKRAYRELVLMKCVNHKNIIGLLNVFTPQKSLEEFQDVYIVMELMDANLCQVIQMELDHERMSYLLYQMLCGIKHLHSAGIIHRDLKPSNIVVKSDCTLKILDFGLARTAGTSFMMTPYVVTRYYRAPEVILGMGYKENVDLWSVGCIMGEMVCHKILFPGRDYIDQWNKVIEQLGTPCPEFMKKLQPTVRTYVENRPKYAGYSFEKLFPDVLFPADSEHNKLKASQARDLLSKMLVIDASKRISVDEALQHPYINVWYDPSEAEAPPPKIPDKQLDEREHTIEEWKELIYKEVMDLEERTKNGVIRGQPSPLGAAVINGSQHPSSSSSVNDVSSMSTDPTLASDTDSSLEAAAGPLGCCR

Target: T1, TNF receptor-associated factor 4 (TRAF4) (human (endogenous in HT29)) (UniProt Q9BUZ4)
T1 sequence: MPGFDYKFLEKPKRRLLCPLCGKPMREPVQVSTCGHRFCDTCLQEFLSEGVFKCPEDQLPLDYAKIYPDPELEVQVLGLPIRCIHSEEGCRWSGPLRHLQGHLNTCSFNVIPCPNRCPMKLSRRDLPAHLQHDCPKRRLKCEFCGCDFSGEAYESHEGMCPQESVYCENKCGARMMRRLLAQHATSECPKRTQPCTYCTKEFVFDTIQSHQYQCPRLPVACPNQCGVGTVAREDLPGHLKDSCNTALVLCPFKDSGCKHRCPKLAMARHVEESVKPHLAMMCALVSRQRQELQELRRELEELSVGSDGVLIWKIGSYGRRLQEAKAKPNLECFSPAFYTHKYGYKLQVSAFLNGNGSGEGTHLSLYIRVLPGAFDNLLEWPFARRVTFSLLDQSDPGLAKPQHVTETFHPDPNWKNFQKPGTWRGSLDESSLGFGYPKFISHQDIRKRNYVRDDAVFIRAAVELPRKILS
Assay: co-IP; HT29 cells treated with or without IR (4 Gy) for 30 min; whole-cell extract subjected to co-IP; which protein was precipitated not given

binding	Substance
binds	c-Jun N-terminal kinase 1 (JNK1) (from UniProt P45983 1-427)
binds	c-Jun N-terminal kinase 2 (JNK2) (from UniProt P45984 1-424)
